# Source: the supplement of paper PMC8728848
# This is one part of the list.
# B1: SJCP3842 (Schistosoma japonicum) (protein)
# chain: MFKMRIINLVNISTVLLLINLLQTKSRLVGKENGFMLTVSIYGAQLSDKMTSVPVSWTIDYEDPEKSAFKKLVTDSCDTFSEYVKSQIPKGSVDGQCTSHIFQRPGSGSGVSISLTLSFIYVDVTQPDTVALKTELEKHFANFVTIHSHKITQAQFRINQKAIVIPTGDKDAIDGSKWKIIAIIALVALAIVVIGGFIYICVK
# Columns and labels:
# Experiment in all cases: glycan array binding signal (z-score within array); higher = stronger binding
# Conditions in all cases: glycan notation: IUPAC condensed, linker removed
# [1] = biological target: Glc(b1-6)Glc
# Procedure, shortened: (§1)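 Glycan array data came from 3228 arrays in the Consortium for Functional Glycomics database, and only arrays with an available protein sequence were kept. Glycan names were put into IUPAC-condensed notation, and columns mapping to the same glycan were averaged. The binding signal is a within-array Z-score, averaged across arrays of one protein sequence run at different concentrations or buffers and across linkers. A negative Z-score can be read as non-binding.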
# [2] = biological target: GlcA(b1-3)Gal
# Procedure, shortened: as §1
# [3] = biological target: GlcA(b1-3)GlcNAc
# Procedure, shortened: as §1
# [4] = biological target: GlcA(b1-6)Gal
# Procedure, shortened: as §1
# [5] = biological target: GlcA3S(b1-3)Gal(b1-4)GlcNAc(b1-2)Man
# Procedure, shortened: as §1
# [6] = biological target: GlcA3S(b1-3)Gal(b1-4)GlcNAc(b1-3)Gal(b1-4)Glc
# Procedure, shortened: as §1
# [7] = biological target: GlcNAc(a1-3)Gal(b1-4)GlcNAc
# Procedure, shortened: as §1
# [8] = biological target: GlcNAc(a1-4)Gal(b1-3)GlcNAc
# Procedure, shortened: as §1
# [9] = biological target: GlcNAc(a1-4)Gal(b1-4)GalNAc
# Procedure, shortened: as §1
# [10] = biological target: GlcNAc(a1-4)Gal(b1-4)GlcNAc
# Procedure, shortened: as §1
# [11] = biological target: GlcNAc(a1-4)Gal(b1-4)GlcNAc(b1-3)Gal(b1-4)Glc
# Procedure, shortened: as §1
# [12] = biological target: GlcNAc(a1-4)Gal(b1-4)GlcNAc(b1-3)Gal(b1-4)GlcNAc
# Procedure, shortened: as §1
# [13] = biological target: GlcNAc(a1-4)Gal(b1-4)GlcNAc(b1-3)Gal(b1-4)GlcNAc(b1-3)Gal(b1-4)GlcNAc
# Procedure, shortened: as §1
# [14] = biological target: GlcNAc(a1-4)Gal(b1-4)GlcNAc(b1-3)Gal(b1-4)[Fuc(a1-3)]GlcNAc(b1-3)Gal(b1-4)[Fuc(a1-3)]GlcNAc
# Procedure, shortened: as §1
# [15] = biological target: GlcNAc(a1-6)Gal(b1-4)GlcNAc
# Procedure, shortened: as §1
# [16] = biological target: GlcNAc(b1-2)Gal(b1-3)GalNAc
# Procedure, shortened: as §1
# [17] = biological target: GlcNAc(b1-2)Man(a1-3)[GlcNAc(b1-2)Man(a1-6)]Man(b1-4)GlcNAc(b1-4)GlcNAc
# Procedure, shortened: as §1
# [18] = biological target: GlcNAc(b1-2)Man(a1-3)[GlcNAc(b1-2)Man(a1-6)]Man(b1-4)GlcNAc(b1-4)[Fuc(a1-6)]GlcNAc
# Procedure, shortened: as §1
# [19] = biological target: GlcNAc(b1-2)Man(a1-3)[GlcNAc(b1-4)][GlcNAc(b1-2)Man(a1-6)]Man(b1-4)GlcNAc(b1-4)GlcNAc
# Procedure, shortened: as §1
# [20] = biological target: GlcNAc(b1-2)Man(a1-3)[GlcNAc(b1-4)][GlcNAc(b1-2)Man(a1-6)]Man(b1-4)GlcNAc(b1-4)[Fuc(a1-6)]GlcNAc
# Procedure, shortened: as §1
# [21] = biological target: GlcNAc(b1-2)[GlcNAc(b1-4)]Man(a1-3)[GlcNAc(b1-2)Man(a1-6)]Man(b1-4)GlcNAc(b1-4)GlcNAc
# Procedure, shortened: as §1
# [22] = biological target: GlcNAc(b1-2)[GlcNAc(b1-4)]Man(a1-3)[GlcNAc(b1-4)][GlcNAc(b1-2)Man(a1-6)]Man(b1-4)GlcNAc(b1-4)GlcNAc
# Procedure, shortened: as §1
# [23] = biological target: GlcNAc(b1-2)[GlcNAc(b1-4)]Man(a1-3)[GlcNAc(b1-4)][GlcNAc(b1-2)[GlcNAc(b1-6)]Man(a1-6)]Man(b1-4)GlcNAc(b1-4)GlcNAc
# Procedure, shortened: as §1
# [24] = biological target: GlcNAc(b1-2)[GlcNAc(b1-4)]Man(a1-3)[GlcNAc(b1-4)][GlcNAc(b1-2)[GlcNAc(b1-6)]Man(a1-6)]Man(b1-4)GlcNAc(b1-4)[Fuc(a1-6)]GlcNAc
# Procedure, shortened: as §1
# [25] = biological target: GlcNAc(b1-2)[GlcNAc(b1-6)]Man(a1-6)[GlcNAc(b1-2)Man(a1-3)]Man(b1-4)GlcNAc(b1-4)GlcNAc
# Procedure, shortened: as §1
# [26] = biological target: GlcNAc(b1-2)[GlcNAc(b1-6)]Man(a1-6)[GlcNAc(b1-2)Man(a1-3)]Man(b1-4)GlcNAc(b1-4)[Fuc(a1-6)]GlcNAc
# Procedure, shortened: as §1
# [27] = biological target: GlcNAc(b1-2)[GlcNAc(b1-6)]Man(a1-6)[GlcNAc(b1-4)][GlcNAc(b1-2)Man(a1-3)]Man(b1-4)GlcNAc(b1-4)GlcNAc
# Procedure, shortened: as §1
# [28] = biological target: GlcNAc(b1-3)Fuc
# Procedure, shortened: as §1
# [29] = biological target: GlcNAc(b1-3)Gal
# Procedure, shortened: as §1
# [30] = biological target: GlcNAc(b1-3)Gal(b1-3)GalNAc
# Procedure, shortened: as §1
# [31] = biological target: GlcNAc(b1-3)Gal(b1-4)Glc
# Procedure, shortened: as §1
# [32] = biological target: GlcNAc(b1-3)Gal(b1-4)GlcNAc
# Procedure, shortened: as §1
# [33] = biological target: GlcNAc(b1-3)Gal(b1-4)GlcNAc(b1-2)Man(a1-3)[GlcNAc(b1-3)Gal(b1-4)GlcNAc(b1-2)Man(a1-6)]Man(b1-4)GlcNAc(b1-4)GlcNAc
# Procedure, shortened: as §1
# [34] = biological target: GlcNAc(b1-3)Gal(b1-4)GlcNAc(b1-2)Man(a1-3)[GlcNAc(b1-3)Gal(b1-4)GlcNAc(b1-2)Man(a1-6)]Man(b1-4)GlcNAc(b1-4)[Fuc(a1-6)]GlcNAc
# Procedure, shortened: as §1
# [35] = biological target: GlcNAc(b1-3)Gal(b1-4)GlcNAc(b1-2)[GlcNAc(b1-3)Gal(b1-4)GlcNAc(b1-6)]Man(a1-6)[GlcNAc(b1-3)Gal(b1-4)GlcNAc(b1-2)Man(a1-3)]Man(b1-4)GlcNAc(b1-4)GlcNAc
# Procedure, shortened: as §1
# [36] = biological target: GlcNAc(b1-3)Gal(b1-4)GlcNAc(b1-3)Gal(b1-4)GlcNAc
# Procedure, shortened: as §1
# [37] = biological target: GlcNAc(b1-3)Gal(b1-4)GlcNAc(b1-3)Gal(b1-4)GlcNAc(b1-2)Man(a1-3)[GlcNAc(b1-3)Gal(b1-4)GlcNAc(b1-3)Gal(b1-4)GlcNAc(b1-2)Man(a1-6)]Man(b1-4)GlcNAc(b1-4)GlcNAc
# Procedure, shortened: as §1
# [38] = biological target: GlcNAc(b1-3)Gal(b1-4)GlcNAc(b1-3)Gal(b1-4)GlcNAc(b1-2)Man(a1-3)[GlcNAc(b1-3)Gal(b1-4)GlcNAc(b1-3)Gal(b1-4)GlcNAc(b1-2)Man(a1-6)]Man(b1-4)GlcNAc(b1-4)[Fuc(a1-6)]GlcNAc
# Procedure, shortened: as §1
# [39] = biological target: GlcNAc(b1-3)Gal(b1-4)GlcNAc(b1-3)Gal(b1-4)GlcNAc(b1-2)[GlcNAc(b1-3)Gal(b1-4)GlcNAc(b1-3)Gal(b1-4)GlcNAc(b1-6)]Man(a1-6)[GlcNAc(b1-3)Gal(b1-4)GlcNAc(b1-3)Gal(b1-4)GlcNAc(b1-2)Man(a1-3)]Man(b1-4)GlcNAc(b1-4)[Fuc(a1-6)]GlcNAc
# Procedure, shortened: as §1
# [40] = biological target: GlcNAc(b1-3)Gal(b1-4)GlcNAc(b1-3)Gal(b1-4)GlcNAc(b1-3)Gal(b1-4)GlcNAc(b1-2)Man(a1-3)[GlcNAc(b1-3)Gal(b1-4)GlcNAc(b1-3)Gal(b1-4)GlcNAc(b1-3)Gal(b1-4)GlcNAc(b1-2)Man(a1-6)]Man(b1-4)GlcNAc(b1-4)GlcNAc
# Procedure, shortened: as §1
# [41] = biological target: GlcNAc(b1-3)Gal(b1-4)GlcNAc(b1-3)Gal(b1-4)GlcNAc(b1-3)Gal(b1-4)GlcNAc(b1-2)Man(a1-3)[GlcNAc(b1-3)Gal(b1-4)GlcNAc(b1-3)Gal(b1-4)GlcNAc(b1-3)Gal(b1-4)GlcNAc(b1-2)Man(a1-6)]Man(b1-4)GlcNAc(b1-4)[Fuc(a1-6)]GlcNAc
# Procedure, shortened: as §1
# [42] = biological target: GlcNAc(b1-3)Gal(b1-4)GlcNAc(b1-3)Gal(b1-4)GlcNAc(b1-3)Gal(b1-4)GlcNAc(b1-2)[GlcNAc(b1-3)Gal(b1-4)GlcNAc(b1-3)Gal(b1-4)GlcNAc(b1-3)Gal(b1-4)GlcNAc(b1-6)]Man(a1-6)[GlcNAc(b1-3)Gal(b1-4)GlcNAc(b1-3)Gal(b1-4)GlcNAc(b1-3)Gal(b1-4)GlcNAc(b1-2)Man(a1-3)]Man(b1-4)GlcNAc(b1-4)[Fuc(a1-6)]GlcNAc
# Procedure, shortened: as §1
# [43] = biological target: GlcNAc(b1-3)Gal(b1-4)GlcNAc(b1-3)Gal(b1-4)GlcNAc(b1-3)Gal(b1-4)GlcNAc(b1-3)Gal(b1-4)GlcNAc(b1-2)Man(a1-3)[GlcNAc(b1-3)Gal(b1-4)GlcNAc(b1-3)Gal(b1-4)GlcNAc(b1-3)Gal(b1-4)GlcNAc(b1-3)Gal(b1-4)GlcNAc(b1-2)Man(a1-6)]Man(b1-4)GlcNAc(b1-4)GlcNAc
# Procedure, shortened: as §1
# [44] = biological target: GlcNAc(b1-3)Gal(b1-4)GlcNAc(b1-3)Gal(b1-4)GlcNAc(b1-3)Gal(b1-4)GlcNAc(b1-3)Gal(b1-4)GlcNAc(b1-2)Man(a1-3)[GlcNAc(b1-3)Gal(b1-4)GlcNAc(b1-3)Gal(b1-4)GlcNAc(b1-3)Gal(b1-4)GlcNAc(b1-3)Gal(b1-4)GlcNAc(b1-2)Man(a1-6)]Man(b1-4)GlcNAc(b1-4)[Fuc(a1-6)]GlcNAc
# Procedure, shortened: as §1
# [45] = biological target: GlcNAc(b1-3)Gal(b1-4)GlcNAc(b1-3)Gal(b1-4)GlcNAc(b1-3)Gal(b1-4)GlcNAc(b1-3)Gal(b1-4)GlcNAc(b1-2)[GlcNAc(b1-3)Gal(b1-4)GlcNAc(b1-3)Gal(b1-4)GlcNAc(b1-3)Gal(b1-4)GlcNAc(b1-3)Gal(b1-4)GlcNAc(b1-6)]Man(a1-6)[GlcNAc(b1-3)Gal(b1-4)GlcNAc(b1-3)Gal(b1-4)GlcNAc(b1-3)Gal(b1-4)GlcNAc(b1-3)Gal(b1-4)GlcNAc(b1-2)Man(a1-3)]Man(b1-4)GlcNAc(b1-4)[Fuc(a1-6)]GlcNAc
# Procedure, shortened: as §1
binder,measurement,setting,value
B1,glycan array binding signal (z-score),[1],1.58
same,glycan array binding signal (z-score),[2],0.657
same,glycan array binding signal (z-score),[3],-0.284
same,glycan array binding signal (z-score),[4],0.262
same,glycan array binding signal (z-score),[5],1.44
same,glycan array binding signal (z-score),[6],-1.05
same,glycan array binding signal (z-score),[7],0.844
same,glycan array binding signal (z-score),[8],-0.429
same,glycan array binding signal (z-score),[9],-0.224
same,glycan array binding signal (z-score),[10],-0.911
same,glycan array binding signal (z-score),[11],-0.888
same,glycan array binding signal (z-score),[12],-0.28
same,glycan array binding signal (z-score),[13],2.47
same,glycan array binding signal (z-score),[14],0.814
same,glycan array binding signal (z-score),[15],-0.744
same,glycan array binding signal (z-score),[16],-0.99
same,glycan array binding signal (z-score),[17],-0.795
same,glycan array binding signal (z-score),[18],0.864
same,glycan array binding signal (z-score),[19],-1.12
same,glycan array binding signal (z-score),[20],-0.224
same,glycan array binding signal (z-score),[21],-0.27
same,glycan array binding signal (z-score),[22],-0.062
same,glycan array binding signal (z-score),[23],0.218
same,glycan array binding signal (z-score),[24],0.364
same,glycan array binding signal (z-score),[25],-0.597
same,glycan array binding signal (z-score),[26],-0.217
same,glycan array binding signal (z-score),[27],-0.547
same,glycan array binding signal (z-score),[28],0.401
same,glycan array binding signal (z-score),[29],-1.01
same,glycan array binding signal (z-score),[30],-0.211
same,glycan array binding signal (z-score),[31],-0.272
same,glycan array binding signal (z-score),[32],0.01
same,glycan array binding signal (z-score),[33],-0.727
same,glycan array binding signal (z-score),[34],1.52
same,glycan array binding signal (z-score),[35],0.64
same,glycan array binding signal (z-score),[36],-1.38
same,glycan array binding signal (z-score),[37],0.933
same,glycan array binding signal (z-score),[38],0.736
same,glycan array binding signal (z-score),[39],1.43
same,glycan array binding signal (z-score),[40],-0.42
same,glycan array binding signal (z-score),[41],0.763
same,glycan array binding signal (z-score),[42],1.87
same,glycan array binding signal (z-score),[43],-0.488
same,glycan array binding signal (z-score),[44],0.912
same,glycan array binding signal (z-score),[45],0.976

# An excerpt of these results, with bars between the fields:
binder | measurement | setting | value
B1 | glycan array binding signal (z-score) | [6] | -1.05
same | glycan array binding signal (z-score) | [16] | -0.99
same | glycan array binding signal (z-score) | [19] | -1.12
same | glycan array binding signal (z-score) | [20] | -0.224
same | glycan array binding signal (z-score) | [21] | -0.27
same | glycan array binding signal (z-score) | [25] | -0.597
same | glycan array binding signal (z-score) | [37] | 0.933
same | glycan array binding signal (z-score) | [38] | 0.736
same | glycan array binding signal (z-score) | [40] | -0.42
